The source of these data is patent US20220089777A1 (ARONORA, published 2022).

Results are given in words; binding and its absence hold for the method and conditions named. For some of these results: A result given as binding can be weak or reduced; the word gives no strength.

Targets include A1 (FX/PK CHIMERAS); A2 (FX/PK CHIMERAS); A3 (FX/PK CHIMERAS); A4* (FX/PK CHIMERAS).
Common to all, as to test: western blot of human FXI/PK chimeras, non-reducing 10% polyacrylamide gel, detection with biotinylated AB023
A general note: In western blotting, separated proteins are transferred to a membrane and probed.

B1: AB023, humanized anti-FXI monoclonal antibody (variant VH3/Vκ3, clone 3G3) (antibody, V domains shown)
VH: QVQLQESGPGLVKPSETLSITCTVSGFSLTGYGIYWVRQPPGKGLEWLGMIWGDGRTDYNSALKSRVTISKDNSKSQVSLKLSSVTAADTARYYCARDYYGSKDYWGQGTTVTVSS
VL: DIQMTQSPSSLSASVGDRVTITCKASQDVSTAVAWYQQKPGKAPKLLIYLTSYRNTGVPDRFSGSGSGTDFTFTISSLQPEDIAVYYCQQHYKTPYSFGGGTKVEIKR
notes: Human IgG4 with S241P (Kabat) hinge modification, kappa light chain; also called A13023; A8023
For the molecule B1, the binding entry with A1 (FX/PK CHIMERAS) was “binds”; with A2 (FX/PK CHIMERAS) it was “no binding”; with A3 (FX/PK CHIMERAS), “binds”; with A4* (FX/PK CHIMERAS) it was “binds”.
